Assay results reported in PubChem BioAssay AID1508600 (Functional Genomics Laboratory (NCATS/FGL), 2020).
About 3,700 (7%) of roughly 53,000 sequences were called active.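 Rule for the calls: active = gene knockdowns whose robust z-score for IL-1 alpha signal is at least 2 or at most -2, so actives lie on both sides; inactive = the rest.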 The list shows a part of the results.

test: Components of the Cytosolic LPS Sensing Pathway: Gene Identification via Genome-wide siRNA Screen; conditions: RAW264.7 macrophages, IL-1a HTRF, actives lie on both sides, screened at 100 nM (by protocol), cells primed 5 h with Pam3CSK4 first;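 note: robust z of the log signal after scaling to non-targeting control siRNA wells of the plate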
How it was run: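 Knockdown: 100 nM siRNA, 48h, RAW264.7. Stimulation: Pam3CSK4 5 h, then LipidA via TransIT-TKO 24 h. Output: supernatant IL-1a HTRF, negative-control-normalized, log robust z-score; viability by CellTiter-Glo.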

Sequence	z-score
GGCUUUGUCUUGAAUGGCUTT against Adgre1	inactive: -1.11
GGAUGUGAAGAUUGUCAUUTT against Usp5	inactive: -0.658
GGGCCUGAUCUACCUGUUUTT against Slc6a18	inactive: 0.255
GGUCAUGGUUAUUUUGUUATT against Plekhg2	inactive: 0.929
GGCUCUUCUCAACUCCAAGTT against Lmna	inactive: 0.233
GGUGUAUCUGUUCUGUUAATT against Impg1	inactive: -0.559
CCGAGGUUGUGAAACGAUGTT against Trp63	inactive: -1.47
GGUCUCUUUUUGUUGUAGUTT against Nat10	inactive: -0.405
CGCGUGCUCUCAUUAAUGATT against Gna12	inactive: 0.437
GCCUGUUUAGAAUUAGAGATT against Plekhs1	inactive: 0.135
GCUACAAAGAUCACGAAAATT against C2	inactive: 0.668
CCAGUCAAAUAUCCAUUAGTT against Scgb2b26	active: -2.28
AGGCAUUAUACCCAUCAGGTT against Fam89b	inactive: -0.624
GCGGUACAUCAAAUCUGCGTT against Lgalsl	inactive: 0.91
GGACAACUACAUUGUACUGTT against Insr	inactive: -1.16
CCAGAAACCGUGAUAAAAUTT against Immp2l	active: 2.12
GGGUUUCCACAGACAAUGUTT against V1rg10	inactive: -0.837
GCAAGAGCACUGCUUAAAATT against E2f1	inactive: 1.26
GGUUACCACACUAUGUUACTT against Tbc1d2b	inactive: 0.454
CCCGAUGAAGUGUUUUUAGTT against Oosp1	inactive: -0.753
GGAUUUCAUUAUGUAGACUTT against Rag1	inactive: -0.405
GGUGGUGACAGGAACCUCUTT against Mob3a	inactive: -0.429
GGCCAUUCCUUUUCUGGAATT against Crybg1	inactive: 1.54

Sequence	z-score
GCUACUAUUCCAUCCAUCATT against Atg4b	inactive: -0.306
GGAGCUGCUUGCUCAAAGATT against Tmem65	inactive: 0.61
GCGAGAUGUCCUCAACAAGTT against Dusp16	inactive: 0.0466
GCGAACUCAAACAGUUAAATT against Clca1	inactive: -0.706
GCCAAGAGUUUGAUAUAUATT against Plekhg3	inactive: 1.79
GGGAGAUUGGAAACAAAAATT against Hsd3b4	inactive: -0.935
GGAACUUCAUCCAAACUGATT against Ap4m1	inactive: -0.12
CCCAGGUCCUACCUUCUUUTT against Ppcdc	active: -2.1
CCAUCUAUCUGGGAUCUCGTT against Cyp2a4	inactive: 0.111
GCACAAAUACAGGUCGUCUTT against Unk	inactive: 0.0277
CCGACUGCUCGUAAAUUCATT against Ndufa12	active: 2.79
CCUACCUGAUUGUGACAUUTT against Arl6ip1	inactive: -0.309
GGUUUGUAUCUCACUUUUGTT against Olfr1247	inactive: 0.31
CCAAGCCUACUACCAUCAUTT against Fabp3	inactive: 0.0751
GGUCACCUUUAUGCUACUUTT against Traf1	inactive: -0.921
UCUUCCGACUGCCUUUCUGTT against Olfr1417	inactive: 1.24
GGAUGUCACUGUUUCACAATT against Clic6	inactive: -1.64
CCUUUGUCUUUGGUAAAUCTT against Baz2b	inactive: -1.08
GGAAGUCCUAGUCAUCUUUTT against Mgat2	inactive: 1.05
CGAAACUGGAGAUGUUAUATT against Serpine1	inactive: 1.27
GGACUGCCUUAUGCUACGATT against Setd5	inactive: -0.44
GGAAGACACUUAAAAAUUCTT against Mxra8	inactive: -1.91
GGCAGUCUGUCAGAUCAAUTT against Spata31d1d	inactive: -0.885

Sequence	z-score
GGACUUUGAGUUAAAUGCATT against Myh7	inactive: -0.599
GGACCUAGAUUUUCUACACTT against Cask	inactive: 0.662
GCUGGCUAUACUUUACAACTT against Prkg1	active: 2.11
GGAUUGGAUCUUACAUGUCTT against Scnn1b	inactive: -0.137
GGAGAGCAAUGGUCCAACATT against Clta	inactive: 0.747
GCCUCAUGUCUACUCGCUUTT against Nmur1	inactive: -0.583
GGUUUCUAUUCUACCUCCCTT against Ceacam14	inactive: -0.571
GGAAAUUUUGGAGAUGAUATT against Wdr36	inactive: -1.03
CGGGAUAUAUUCUCAGACUTT against Rhbdl2	inactive: -0.387
GCCAUAUAAGAUUCUUGUGTT against Pi4kb	inactive: -0.63
GGUAGAGACGUGAAUGCUCTT against Tmem184b	inactive: -0.383
GCUUGUUAUGAGCGGGCUUTT against Rhox9	inactive: -0.00918
GGUCAAUGCUACUAAUGAATT against Ankrd61	inactive: 0.661
CCCGAAUGAUCAAACCAAGTT against Stpg1	inactive: 0.955
GGGACUCUUCACUUGAAAUTT against Ccl3	inactive: -3.8e-05
GCCGGAAUCAAGAUUAUCATT against Foxm1	active: -2.04
GGAUACUGCCAUUCAUAGGTT against Cstdc2	inactive: -0.182
GGUUUACCCUGCUCAUUUUTT against Fbxl6	inactive: 1.71
GGCAAGGAAGGAGAUUGCUTT against Ist1	inactive: -0.779
GGCAUUGGCAUUUUUAUAGTT against 9530056K15Rik	inactive: -0.879
GGUUAUCUUUGGGACUUAATT against Lrmp	inactive: -1.66
GCUCGGACUGACCUUUAUGTT against Cnot7	inactive: 0.532

As a working copy, some entries already given:
Sequence	z-score
GGACCUAGAUUUUCUACACTT against Cask	inactive: 0.662
GCUGGCUAUACUUUACAACTT against Prkg1	active: 2.11
GGAUUGGAUCUUACAUGUCTT against Scnn1b	inactive: -0.137
GGAGAGCAAUGGUCCAACATT against Clta	inactive: 0.747
GCCUCAUGUCUACUCGCUUTT against Nmur1	inactive: -0.583
